Data as given in PubChem BioAssay AID2685 (National Center for Advancing Translational Sciences (NCATS), 2010).
Some of the results follow. Further columns of the screen follow, without active or inactive calls. Most of these compounds were active or inconclusive in the main read-out, so they are no random draw. Words in brackets tell the shape of the fitted curve; partial curves, single points and poor fits give uncertain potencies.

Test: qHTS Assay for Lipid Storage Modulators in Drosophila S3 Cells;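 as to cell number change: cells counted by Cell Tracker Red CMTPX staining in the red channel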
Settings: BODIPY lipid droplet fluorescence, 18-24 h; for cell number change: measured here: cell count max response, cells fed with added oleic acid
Outline: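 Drosophila S3 cells loaded with oleic acid (400 uM, as added) and compounds at several concentrations; lipid droplets imaged by 488-nm laser-scanning cytometry, 500–530 nm intensity and object ratio to cell channel. Percent activity normalized to 20 uM Triacsin C.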

[1] = measured here: lipid fluorescence (Fed channel) AC50, cells fed with added oleic acid
[2] = measured here: cell number channel AC50, cells fed with added oleic acid

O=C(CCSCc1ccc(Cl)cc1)NCCc1ccccc1
cell number change: -15.7% | AC50 [1]: 1.84 µM [rising, partial curve, poor fit]

Cc1nn(-c2ccccc2)c2c1C1(C(=O)Nc3ccccc31)N1C(=N2)Sc2ccccc21 (stereo unspecified)
cell number change: -24.7% | AC50 [1]: 6.51 µM [falling, partial curve]

CSc1nnc(-c2cccn(Cc3ccccc3)c2=O)o1
cell number change: 23.1% | AC50 [1]: 0.58 µM [falling, single point]

CNc1nnc(SCC(=O)c2cc(C)n(C3CC3)c2C)s1
cell number change: -5.65% | AC50 [1]: 0.58 µM [falling, single point]

COC(=O)C(O)(CC(=O)Nc1cc(OC)c(OC)c(OC)c1)C(F)(F)F (stereo unspecified)
cell number change: 10.1% | AC50 [1]: 1.03 µM [rising, full curve, poor fit]

Cc1cc2occ(CC(=O)NCc3cccs3)c2cc1C(C)C
AC50 [1]: 0.651 µM [falling, full curve]

CCOc1ccc(NC(=O)CSc2nc3c([nH]c4ccccc43)c(=O)n2C)cc1
cell number change: 9.88% | AC50 [1]: 0.13 µM [rising, full curve, poor fit]

Cc1cc(Br)ccc1NC(=O)CNC(=O)CSc1n[nH]c(N)n1
AC50 [2]: 0.651 µM [rising, full curve]

Cc1ccccc1C(=O)Nc1ccc(CN2CCOCC2)cc1
cell number change: 21.1%

COc1cc(OC)nc(NC(=O)CCl)n1
cell number change: 3% | AC50 [1]: 29.1 µM [rising, single point]

CCOC(=O)c1c(NC(=O)CCl)sc(CN(C)C)c1-c1ccccc1
cell number change: -5.13%

Cc1c(C(=O)O)oc2ccc(S(=O)(=O)N3CCCCC3C(=O)O)cc12 (stereo unspecified)
cell number change: 26.2% | AC50 [1]: 29.1 µM [rising, single point]

COc1ccc(S(=O)(=O)N2CCOCC2)cc1NC(=O)c1ccncc1
cell number change: 0.13% | AC50 [1]: 0.00461 µM [falling, full curve, poor fit]

CCOC(=O)N1CCC(N(CCN(C)C)C(=S)Nc2cc(Cl)ccc2C)CC1
cell number change: 21.6%

O=C(Nc1ccc(Cl)cc1C(=O)Nc1ccncc1)c1ccco1
cell number change: 12.3% | AC50 [2]: 0.517 µM [rising, single point] | AC50 [1]: 0.651 µM [rising, full curve]

N#CCCNS(=O)(=O)c1ccc(C(=O)OCC(=O)Nc2ccc3c(c2)OCO3)cc1
cell number change: 37.3% | AC50 [2]: 14.6 µM [rising, partial curve, poor fit] | AC50 [1]: 4.11 µM [rising, full curve]

N#CC(c1ccc(=O)[nH]n1)c1ccc(Cl)cc1Cl (stereo unspecified)
cell number change: 5.73%

N#CC(c1ccccc1)(c1ncc(C(F)(F)F)cc1Cl)N1CCOCC1 (stereo unspecified)
cell number change: 10.9% | AC50 [1]: 0.291 µM [rising, full curve, poor fit]

Cc1ccc(S(=O)(=O)CC(=O)Nc2ccc3nc(C)sc3c2)cc1
cell number change: -3.95% | AC50 [1]: 4.61 µM [rising, partial curve]

Cc1ccc(CN2CCN(c3ccccn3)CC2)s1
cell number change: 32.7% | AC50 [2]: 3.26 µM [rising, full curve]

Cc1ccc(S(=O)(=O)CCC(=O)Nc2ccc(Br)cc2)cc1
cell number change: -22.5%

Cc1oc(C)c(C(=O)Nc2ccc(CC(=O)O)cc2)c1C(=O)Nc1ccc(CC(=O)O)cc1
cell number change: -21.8% | AC50 [2]: 0.0517 µM [falling, full curve, poor fit] | AC50 [1]: 0.731 µM [falling, full curve, poor fit]

NS(=O)(=O)c1ccc(NC(=O)COC(=O)C2CCCCC2)cc1
cell number change: -41.2% | AC50 [2]: 29.1 µM [falling, single point]

Cc1ccc(-c2nn(C)c(=O)c3ccccc23)cc1CNC(=O)CSc1nc2ccccc2o1
AC50 [1]: 2.06 µM [rising, partial curve, poor fit]

O=C(O)c1cccc(N/N=C/c2sc(N3CCOCC3)nc2-c2ccccc2)c1
cell number change: 0.141%

CCN(CCNC(=O)CCCn1nc(C)n2c(cc3sccc32)c1=O)c1ccccc1
cell number change: 30.8% | AC50 [2]: 20.6 µM [rising, single point] | AC50 [1]: 18.4 µM [rising, single point]

COc1ccc(NC(=O)CC(C)n2ccnc2)cc1 (stereo unspecified)
AC50 [1]: 23.1 µM [rising, single point]

COc1ccc(C(=O)Oc2ccc3c(C)cc(=O)oc3c2C(C)=O)cc1
cell number change: 5.3%

Cc1ccc(S(=O)(=O)NCc2ccccc2C)cc1
cell number change: 14.2%

CCOCC(=O)Nc1c(C(=O)Nc2ccc3c(c2)OCCO3)oc2ccccc12
cell number change: 23% | AC50 [1]: 6.51 µM [rising, single point]

O=S1(=O)CCOCCCN1Cc1cccc(F)c1
cell number change: 3.89% | AC50 [1]: 5.17 µM [rising, full curve]

C[C@H]1CN(C2CCCCC2)C(=O)[C@@H]1CC(=O)NCc1ccccc1
cell number change: 5.69% | AC50 [1]: 3.66 µM [rising, full curve]

COc1ccc(C2NC(=O)NC3=C2CCc2ccccc23)cc1 (stereo unspecified)
cell number change: 9.63% | AC50 [1]: 6.51 µM [rising, single point]

N#CCSc1nnc(Nc2ccccc2)s1
cell number change: 39.4% | AC50 [2]: 0.082 µM [rising, full curve]

CCc1nnc(NC(=O)C2CCCN2C(=O)NC2CCCCC2)s1 (stereo unspecified)
cell number change: -4.45% | AC50 [1]: 29.1 µM [falling, partial curve]

COc1ccc(-n2c(SCC(=O)C(C)(C)C)nc3c(sc(=S)n3-c3ccccc3)c2=O)c(OC)c1
cell number change: 104% | AC50 [2]: 29.1 µM [rising, single point] | AC50 [1]: 7.31 µM [rising, partial curve]

Cc1cc(S(=O)(=O)N2CCN=C2c2ccccc2)ccc1F
cell number change: 45.6% | AC50 [2]: 10.3 µM [rising, partial curve, poor fit]

Cc1cc(C)n2cc(CSc3nnc(SCc4cn5c(C)cc(C)nc5n4)s3)nc2n1
cell number change: 8.91%

Nc1nccnc1C(=O)OCC(=O)N1CCN(S(=O)(=O)c2ccc(Cl)cc2)CC1
cell number change: 26% | AC50 [1]: 20.6 µM [rising, partial curve]

COc1ccc(C(C(=O)NC2CCCCC2)N(CC2CCCO2)C(=O)CNC(=O)c2ccco2)cc1 (stereo unspecified)
cell number change: 36.5% | AC50 [1]: 6.51 µM [rising, single point]

Cc1ccc(C(=O)CCNc2ccc(Br)cc2)o1
cell number change: 85.5% | AC50 [2]: 20.6 µM [rising, single point]

Cc1cccn2c(=O)c3cc(C(=O)NCCC4=CCCCC4)n(C)c3nc12
AC50 [1]: 11.6 µM [falling, partial curve]

CSc1nnc(NC(=O)c2ccc3c(c2)OCO3)s1
cell number change: 27.2% | AC50 [1]: 2.91 µM [rising, full curve]

CCCc1cc(=O)[nH]c2nnc(SCC(=O)Nc3cc(C)on3)n12
cell number change: -5.22%

Cc1ccc(NC(C(N)=O)c2c(C)[nH]c(=O)[nH]c2=O)cc1 (stereo unspecified)
cell number change: -1.98%

COc1ccc(-c2nc(CSCC(=O)NCCC3=CCCCC3)c(C)o2)cc1OC
cell number change: -1.31% | AC50 [1]: 8.2 µM [falling, full curve, poor fit]

CC(Oc1ccc(Cl)cc1)C(=O)N1CCN(C(=O)c2ccco2)CC1 (stereo unspecified)
cell number change: 16% | AC50 [2]: 0.461 µM [falling, single point] | AC50 [1]: 0.461 µM [falling, single point]

N=C(N)c1ccc(/C=C/c2ccc(C(=N)N)cc2O)cc1
cell number change: -15.7%

Cc1cccc(OCc2nnc(SCC(=O)NC3CCCCC3)n2C)c1
cell number change: -0.901% | AC50 [1]: 18.4 µM [rising, partial curve, poor fit]

CC(CC(=O)O)CC(=O)Nc1cc([N+](=O)[O-])ccc1O (stereo unspecified)
cell number change: 24.4% | AC50 [2]: 0.517 µM [falling, single point] | AC50 [1]: 0.58 µM [falling, single point]

CN1CCN(C(=O)CN2C(=O)COc3ccc(S(=O)(=O)N4CCOCC4)cc32)CC1
cell number change: 31.3% | AC50 [2]: 7.31 µM [rising, partial curve]

CC1=C/C(=C(\c2ccc(O)c(C)c2)c2ccccc2S(=O)(=O)O)C=CC1=O
cell number change: 10.8% | AC50 [2]: 0.146 µM [falling, full curve, poor fit]

CCn1c(CC(=O)Nc2ccccc2F)nnc1SCC(=O)NC1CCCCC1
cell number change: -7.62%

N#Cc1cn(Cc2ccccc2)c2ccccc12
AC50 [1]: 1.64 µM [falling, partial curve]

CNC(=O)C1CCN(C(=O)c2ccc(-c3ccccc3)cc2)CC1
cell number change: 33% | AC50 [2]: 1.03 µM [rising, full curve, poor fit]

NS(=O)(=O)c1ccc(CNC(=O)c2cc(-c3ccccc3)nc3ccccc23)cc1
cell number change: -35.1% | AC50 [2]: 18.4 µM [falling, single point] | AC50 [1]: 29.1 µM [falling, single point]

O=C(NCc1cn2ccsc2n1)c1c(F)cccc1Cl
cell number change: 39.4% | AC50 [2]: 29.1 µM [rising, single point] | AC50 [1]: 13 µM [rising, partial curve]

CN(C)c1oc(-c2ccccc2Cl)nc1S(=O)(=O)c1ccccc1
cell number change: 16.1% | AC50 [1]: 0.00411 µM [rising, full curve, poor fit]

Cc1ccc(Cn2c(C3CCCN3c3nc(C)cs3)nc3cc(C(F)(F)F)ccc32)cc1 (stereo unspecified)
cell number change: 15.9% | AC50 [1]: 10.3 µM [rising, partial curve]

CC(C)c1ccc(S(=O)(=O)c2cnc(=S)[nH]c2N)cc1
cell number change: -2.13%

Cc1ccc(S(=O)(=O)NCc2ccc(C(=O)N3CCN(c4ccccn4)CC3)cc2)cc1
cell number change: 7.93% | AC50 [1]: 4.11 µM [rising, full curve, poor fit]

COc1ccc(OC)c(NC(=O)C2CC(=O)n3ncnc3N2)c1 (stereo unspecified)
cell number change: -23%

C/C(=N\NC(=O)OC(C)(C)C)c1ccc[nH]1
cell number change: 14.6%

Cc1ccc(S(=O)(=O)/C(C#N)=C/c2c(N3CC(C)OC(C)C3)nc3c(C)cccn3c2=O)cc1 (stereo unspecified)
cell number change: 60.4% | AC50 [2]: 23.1 µM [rising, single point] | AC50 [1]: 1.46 µM [rising, partial curve]
